# The other results are listed elsewhere or left out. Single values are uncertain, as repeats are few or missing.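 Pooled together, 41 HAP1 clones carry intronic fluorescent tags on 61 cancer-associated proteins, and each clone is recognized by its imaging pattern. Measurements are benchmarked against DMSO-treated control wells. dBET6, a BRD4 degrader, served as the positive control.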
# Molecular target: BRD4 (intron 10 mScarlet tag, HAP1) (UniProt O60885)
# Test: BRD4 median nuclear fluorescence intensity change vs DMSO (log2 fold change); higher = more BRD4 protein
# Conditions: 6 h
row,Structure (SMILES),BRD4 median nuclear fluorescence intensity change (log2)
1,C[C@]12CCC(=O)C=C1C=C[C@@H]1[C@@H]2CC[C@@]2(C)[C@H]1CC[C@@]21CCC(=O)O1 [canrenone] (9.99944 µM),0.0224
2,CC(C(=O)O)c1cccc(Oc2ccccc2)c1 (configuration not stated) [fenoprofen] (10 µM),0.0129
3,O=C1CCCC(=O)C1C(=O)c1ccc(C(F)(F)F)cc1[N+](=O)[O-] [nitisinone] (10 µM),0.0334
4,CO[C@H]1C[C@@H]2CC[C@@H](C)[C@@](O)(O2)C(=O)C(=O)N2CCCC[C@H]2C(=O)O[C@H]([C@H](C)C[C@@H]2CC[C@@H](OC(=O)C(C)(CO)CO)[C@H](OC)C2)CC(=O)[C@H](C)/C=C(\C)[C@@H](O)[C@@H](OC)C(=O)[C@H](C)C[C@H](C)/C=C/C=C/C=C/1C [temsirolimus] (20 µM),-0.0976
5,C[C@H]1O[C@@H](O[C@H]2[C@@H](O)C[C@H](O[C@H]3[C@@H](O)C[C@H](O[C@H]4CC[C@@]5(C)[C@H](CC[C@@H]6[C@@H]5CC[C@]5(C)[C@@H](C7=CC(=O)OC7)CC[C@]65O)C4)O[C@@H]3C)O[C@@H]2C)C[C@H](O)[C@@H]1O [digitoxin] (10.0002 µM),-0.0189
6,CCCCCOC(=O)Nc1nc(=O)n([C@@H]2O[C@H](C)[C@@H](O)[C@H]2O)cc1F [capecitabine] (20 µM),-0.0162
7,O=C(O)c1cnccn1 [pyrazinoic acid] (10 µM),0.0796
